Laboratory results taken from US20210353749A1, “GUANABENZ AS AN ADJUVANT FOR IMMUNOTHERAPY” (UNIVERSITÉ CATHOLIQUE DE LOUVAIN, priority 2018, published 2021).
At least one structure is not confirmed: it was looked up by name or label, or the drawing left a doubt.

How the values were obtained:
[1] = tested on: Mouse TCRP1A CD8+ T cells; assay: CD107 cytotoxicity assay (degranulation assay), mouse T cells; assay type: cell-based; details: sunitinib 0.1, 0.3, 0.8, 2.5 or 4 μM, 16 hours, vs control (PBS); FIG. 12A
Protocol: Mouse TCRP1A CD8^+ T cells: P1A-specific (TCRP1A) CD8^+ T cells were isolated from spleens and lymph nodes of TCRP1A mice using anti-mouse CD8a (Ly-2) MicroBeads (Miltenyi Biotec).
CD107 cytotoxicity assay (Degranulation assay): TCRP1A CD8^+ T cells were plated at 50,000 cells per well in a 96 U plate with different concentrations of guanabenz and incubated at 37° C. overnight prior to their use in the assay on the next day. On the day of the assay, the culture supernatant was removed from the cells and the cells were washed once with complete medium to remove the drug. The target cells L1210-P1A-B7.1 were added to the wells at a ratio of 1:1. Control wells containing either only T cells or target cells were also included for each plate. CD107a-APC was added to each well at the same time as addition of the target cells. The plate was then incubated at 37° C. for 90 minutes. At the end of the incubation period the cells were harvested and washed once with PBS. They were stained with anti-mouse CD8-Bv421 antibody for 15 minutes. The cells were then washed and resuspended in PBS and analyzed using FACS Fortessa flow cytometer. Human CD8^+ T cell degranulation was evaluated in a similar way. […]

TiRP tumor = assay: TiRP melanoma model with adoptive cell transfer of activated P1A-specific CD8+ T cells; assay type: in vivo, mouse; details: sunitinib 20 mg/kg daily oral gavage with ACT
From the text: TiRP mice: TiRP mice have been created by crossing Ink4a/Arf^flox/flox mice with mice carrying a transgenic construct controlled by the tyrosinase promoter and driving the expression of H-Ras^12V and Trap1a which encodes a MAGE-type tumor antigen P1A; the promoter is separated from the coding region by a stop cassette made of a floxed self-deleting CreER (Huijbers et al., 2006, Cancer Res 66, 3278-3286). Those mice were backcrossed to a B10.D2 background and bred to homozygosity. TCRP1A mice heterozygous for the H-2Ld/P1A35-43-specific TCR transgene were kept on the B10.D2; Rag1^−/− background (Shanker et al., 2004, J Immunol 172, 5069-5077). All mice used in this study were produced under specific pathogen free (SPF) conditions at the animal facility of the Ludwig Institute for Cancer Research. All the rules concerning animal welfare have been respected according to the 2010/63/EU Directive. […]
A fresh solution of 40H-Tamoxifen was prepared by dissolving 40H-Tamoxifen (Imaginechem) in 100% ethanol and mineral oil (ratio 1:9) followed by 30-min sonication, and injected subcutaneously (2 mg/200 μL per mouse) in the neck area of gender-matched 7 weeks old TiRP mice. Tumor appearance was monitored daily and tumors were measured three times/week. Tumor volume (in mm^3) was calculated by the following formula: Volume=width^2×length/2. […]

## CCN(CC)CCNC(=O)c1c(C)[nH]c(/C=C2\C(=O)Nc3ccc(F)cc32)c1C [sunitinib]
[1]
  T cell degranulation (FACS detection of CD107a): did no significantly increase
TiRP tumor; day 0 to day 10, vs ACT alone, FIG. 12B
  tumor growth: not significantly decreased
TiRP tumor; FIG. 12C
  tumor infiltration of CD8+ T cells (P1A tetramer+ CD8+ T cells among total living cells): not increased
